Assay results from patent US6576442.
These are yes or no findings as the source states them, for the method shown. For some of these results: In cells and extracts the contact can be indirect. Sequences can lack the tags named with a protein.

What was measured:
[1] = target: Fak (focal adhesion kinase); assay: in vitro binding to immobilized GST-fusion protein
[2] = target: Fak (focal adhesion kinase); assay: coexpression in COS cells, anti-HA immunoprecipitation, immunoblot with anti-Fak
[3] = target: Fak (focal adhesion kinase); assay: coexpression in 293 cells, co-immunoprecipitation

Row | Binder | binding [2] | also measured
1 | GST-fusion protein containing the same portion of hrdgB1 (amino acids 627-936) (protein, not shown: a dimerising Fc or GST) VKLRNVTANHRANDVIAAEDGPQVLVGRFMYGPLDMVALTGEKVDILVMAEPSSGRWVHLDTEITNSSGRITYNVPRPRRLGVGVYPVKMVVRGDQTCAMSYLTVLPRGMECVVFSIDGSFAASVSIMGSDPKVRPGAVDVVRHWQDLGYMILYITGRPDMQKQRVVSWLSQHNFPQGMIFFSDGLVHDPLRQKAIFLRNLMQECFIKISAAYGSTKDISVYSVLGLPASQIFIVGRPTKKYQTQCQFLSEGYAAHLAVLEASHRSRPKKNNSRMILRKGSFGLHAQPEFLRKRNHLRRTMSVQQPDPPA | – | binding [1]: no binding
2 | hrdgB2-HA (full length hrdgB2 with C-terminal HA-epitope tag) (protein) MLIKEYHILLPMSLDEYQVAQLYMIQKKSREESSGEGSGVEILANRPYTDGPGGSGQYTHKVYHVGSHIPGWFRALLPKAALQVEEESWNAYPYTRTRYTCPFVEKFSIEIETYYLPDGGQQPNVFNLSGAERRQRILDTIDIVRDAVAPGEYKAEEDPRLYHSVKTGRGPLSDDWARTAAQTGPLMCAYKLCKVEFRYWGMQAKIEQFIHDVGLRRVMLRAHRQAWCWQDEWTELSMADIRALEEETARMLAQRMAKCNTGSEGSEAQPPGKPSTEARSAASNTGTPDGPEAPPGPDASPDASFGKQWSSSSRSSYSSQHGGAVSPQSLSEWRMQNIARDSENSSEEEFFDAHEGFSDSEEVFPKEMTKWNSNDFIDAFASPVEAEGTPEPGAEAAKGIEDGAQAPRDSEGLDGAGELGAEACAVHALFLILHSGNILDSGPGDANSKQADVQTLSSAFEAVTRIHFPEALGHVALRLVPCPPICAAAYALVSNLSPYSHDGDSLSRSQDHIPLAALPLLATSSSRYQGAVATVIARTNQAYSAFLRSPEGAGFCGQVALIGDGVGGILGFDALCHSANAGTGSRGSSRRGSMNNELLSPEFGPVRDPLADGVEGLGRGSPEPSALPPQRIPSDMASPEPEGSQNSLQAAPATTSSWEPRRASTAFCPPAASSEAPDGPSSTARLDFKVSGFFLFGSPLGLVLALRKTVMPALEAAQMRPACEQIYNLFHAADPCASRLEPLLAPKFQAIAPLTVPRYQKFPLGDGSSLLLADTLQTHSSLFLEELEMLVPSTPTSTSGAFWKGSELATDPPAQPAAPSTTSEVVKILERWWGTKRIDYSLYCPEALTAFPTVTLPHLFHASYWESADVVAFILRQVIEKERPQLAECEEPSIYSPAFPREKWQRKRTQVKIRNVTSNHRASDTVVCEGPPQVLSGRFMYGPLDVVTLTGEKVDVYIMTQPLSGKWIHFGTEVTNSSGRLTFPVPPERALGIGVYPVRMVVRGDHTYAECCLTVVARGTEAVVFSIDGSFTASVSIMGSDPKVRAGAVDVVRHWQDSGYLIVYVTGRPDMQKHRVVAWLSQHNFPHGVVSFCDGLTHDPLRQKAMFLQSLVQEVELNIVAGYGSPKDVAVYAALGLSPSQTYIVGRAVRKLQAQCQFLSDGYVAHLGQLEAGSHSHASSGPPRAALGKSSYGVAAPVDFLRKQSQLLRSRGPSQAEREGPGTPPTTLARGKARSISLKLDSEEYPYDVPDYAS | no binding | –
3 | hrdgB3-HA (full length hrdgB3 with C-terminal HA-epitope tag) (protein) MIIKEYRIPLPMTVEEYRIAQLYMIQKKSRNETYGEGSGVEILENRPYTDGPGGSGQYTHKVYHVGMHIPSWFRSILPKAALRVVEESWNAYPYTRTRFTCPFVEKFSIDIETFYKTDAGENPDVFNLSPVEKNQLTIDFIDIVKDPVPHNEYKTEEDPKLFQSTKTQRGPLSENWIEEYKKQVFPIMCAYKLCKVEFRYWGMQSKIERFIHDTGLRRVMVRAHRQAWCWQDEWYGLSMENIRELEKEAQLMLSRKMAQFNEDGEEATELVKHEAVSDQTSGEPPEPSSSNGEPLVGRGLKKQWSTSSKSSRSSKRGASPSRHSISEWRMQSIARDSDESSDDEFFDAHEDLSDTEEMFPKDITKWSSNDLMDKIESPEPEDTQDGLYRQGAPEFRVASSVEQLNIIEDEVSQPLAAPPSKIHVLLLVLHGGTILDTGAGDPSSKKGDANTIANVFDTVMRVHYPSALGRLAIRLVPCPPVCSDAFALVSNLSPYSHDEGCLSSSQDHIPLAALPLLATSSPQYQEAVATVIQRANLAYGDFIKSQEGMTFNGQVCLIGDCVGGILAFDALCYSNQPVSESQSSSRRGSVVSMQDNDLLSPGILMNAAHCCGGGGGGGGGGGSSGGGGSSGGSSLESSRHLSRSNVDIPRSNGTEDPKRQLPRKRSDSSTYELDTIQQHQAFLSSLHASVLRTEPCSRHSSSSTMLDGTGALGRFDFEITDLFLFGCPLGLVLALRKTVIPALDVFQLRPACQQVYNLFHPADPSASRLEPLLERRFHALPPFSVPRYQRYPLGDGCSTLLADVLQTHNAAFQEHGAPSSPGTAPASRGFRRASEISIASQVSGMAESYTASSIAQKAPDALSHTPSVRRLSLLALPAPSPTTPGPHPPARKASPGLERAPGLPELDIGEVAAKWWGQKRIDYALYCPDALTAFPTVALPHLFHASYWESTDVVSFLLRQVMRHDNSSILELDGKEVSVFTPSKPREKWQRKRTHVKLRNVTANHRINDALANEDGPQVLTGRFMYGPLDMVTLTGEKVDVHIMTQPPSGEWLYLDTLVTNNSGRVSYTIPESHRLGVGVYPIKMVVRGDHTFADSYITVLPKGTEFVVFSIDGSFAASVSIMGSDPKVRAGAVDVVRHWQDLGYLIIYVTGRPDMQKQRVVAWLAQHNFPHGVVSFCDGLVHDPLRHKANFLKLLISELHLRVHAAYGSTKDVAVYSAISLSPMQIYIVGRPTKKLQQQCQFITDGYAAHLAQLKYSHRARPARNTATRMALRKGSFGLPGQGDFLRSRNHLLRTISAQPSGPSHRHERTQSQADGEQRGQRSMSVAAGCWGRAMTGRLEPGAAAGPKYPYDVPDYAS | no binding | –
4 | hemagglutinin-tagged rdgB1 (full length hrdgB1 with C-terminal HA-epitope tag) (protein) MAKAGRAGGPPPGGGAPWHLRNVLSDSVESSDDEFFDAREEMAEGKNAILIGMSQWNSNDLVEQIETMGKLDEHQGEGTAPCTSSILQEKQRELYRVSLRRQRFPAQGSIEIHEDSEEGCPQRSCKTHVLLLVLHGGNILDTGAGDPSCKAADIHTFSSVLEKVTRAHFPAALGHILIKFVPCPAICSEAFSLVSHLNPYSHDEGCLSSSQDHVPLAALPLLAISSPQYQDAVATVIERANQVYREFLKSSDGIGFSGQVCLIGDCVGGLLAFDAICYSAGPSGDSPASSSRKGSISSTQDTPVAVEEDCSLASSKRLSKSNIDISSGLEDEEPKRPLPRKQSDSSTYDCEAITQHHAFLSSIHSSVLKDESETPAAGGPQLPEVSLGRFDFDVSDFFLFGSPLGLVLAMRRTVLPGLDGFQVRPACSQVYSFFHCADPSASRLEPLLEPKFHLVPPVSVPRYQRFPLGDGQSLLLADALHTHSPLFLEGSSRDSPPLLDAPASPPQASRFQRPGRRMSEGSSHSESSESSDSMAPVGASRITAKWWGSKRIDYALYCPDVLTAFPTVALPHLFHASYWESTDVVAFILRQVMRYESVNIKESARLDPAALSPANPREKWLRKRTQVKLRNVTANHRANDVIAAEDGPQVLVGRFMYGPLDMVALTGEKVDILVMAEPSSGRWVHLDTEITNSSGRITYNVPRPRRLGVGVYPVKMVVRGDQTCAMSYLTVLPRGMECVVFSIDGSFAASVSIMGSDPKVRPGAVDVVRHWQDLGYMILYITGRPDMQKQRVVSWLSQHNFPQGMIFFSDGLVHDPLRQKAIFLRNLMQECFIKISAAYGSTKDISVYSVLGLPASQIFIVGRPTKKYQTQCQFLSEGYAAHLAVLEASHRSRPKKNNSRMILRKGSFGLHAQPEFLRKRNHLRRTMSVQQPDPPAANPKPERAQSQPESDKDHERPLPALSWARGPPKFESVPYPYDVPDYAS | – | binding [3]: no binding
